The values that follow come from publication PMC12158189.

By UniProt entry, the sequences of proteins in these tests, tags left out. Where a name states a change or a piece, a line headed by the entry shows the natural chain unless it says otherwise.
UniProt P05067: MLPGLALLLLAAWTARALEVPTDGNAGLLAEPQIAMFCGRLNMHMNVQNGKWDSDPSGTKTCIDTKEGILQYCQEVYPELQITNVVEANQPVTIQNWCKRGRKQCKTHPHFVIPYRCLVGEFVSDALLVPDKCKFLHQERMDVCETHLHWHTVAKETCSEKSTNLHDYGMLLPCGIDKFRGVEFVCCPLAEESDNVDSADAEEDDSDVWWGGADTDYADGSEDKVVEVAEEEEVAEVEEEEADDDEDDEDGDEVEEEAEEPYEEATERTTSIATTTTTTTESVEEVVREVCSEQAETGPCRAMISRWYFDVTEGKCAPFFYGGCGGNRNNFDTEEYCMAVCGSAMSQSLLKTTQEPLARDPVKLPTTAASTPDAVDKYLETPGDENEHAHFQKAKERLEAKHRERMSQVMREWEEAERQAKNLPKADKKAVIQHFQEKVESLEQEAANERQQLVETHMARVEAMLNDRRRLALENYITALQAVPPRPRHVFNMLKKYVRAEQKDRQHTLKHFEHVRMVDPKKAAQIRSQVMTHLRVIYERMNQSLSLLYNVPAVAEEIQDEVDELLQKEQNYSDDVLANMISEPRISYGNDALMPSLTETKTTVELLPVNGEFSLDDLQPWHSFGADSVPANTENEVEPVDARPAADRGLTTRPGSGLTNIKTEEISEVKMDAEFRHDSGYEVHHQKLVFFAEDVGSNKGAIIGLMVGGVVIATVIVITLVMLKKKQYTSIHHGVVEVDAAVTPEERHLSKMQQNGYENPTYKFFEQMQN

Weaker means in comparison with the reference protein, sequence or condition of that experiment.

The target in this series is Aβ-42 (amyloid beta 1-42) (UniProt P05067). The experiment in a line: G-FET (VDirac shift, Ids-t). The conditions noted are these: full serum, smaller shift than TDN, SI caption says insulin; 5' NH2-C6; 1x PBS with 12.5 mM Mg2+, pH 7.0-7.4, room temperature; or full serum; probe immobilized on graphene FET; commercial protein; single-stranded DNA.

Turning to “AGTCTAGGATTCGGCGTGGGTTAATTTTTTGCTGCCTGTGGTGTTGGGGCGGGTGCG [ss-DNA aptamer (Aβ-42 aptamer)]”, the binding result was “binds more weakly”.
